# Test results taken from PubChem BioAssay AID651 (University of Pittsburgh Molecular Library Screening Center, 2007).
# The whole screen tested about 1,000 compounds, of which about 390 (39%) were called active. The shares of active, inactive and inconclusive entries below differ from those in the screen. Rule as the data show it: active = inhibition above about 48%; inconclusive = no clear call, values can overlap the other calls; inactive = below that.
# Target: Gag-Pol polyprotein (Human immunodeficiency virus type 1 group M subtype B (isolate HXB2)) (UniProt P04585)
# Test: HIV-1 RT RNase H inhibitors, retest, confirmation, biochemical (AID 651)
# Conditions: Recombinant RT RNase H, fluorescent RNA/DNA duplex cleavage; at 10 µM; stronger effect = higher value
row,SMILES,inhibition
1,Cn1cc(C2NC(=O)c3c(sc4c3CCCC4)N2)c2ccccc21 (centres undefined),inconclusive: 47.4%
2,Cc1cc(C(=O)CSc2nnc(-c3ccc(OC(F)F)cc3)o2)c(C)n1Cc1cccs1,active: 67.5%
3,O=C(CSc1nc2sc3c(c2c(=O)n1-c1ccccc1)CCCC3)NCc1ccco1,active: 52.7%
4,O=C1CC(N2CCN(c3ccc(O)cc3)CC2)C(=O)N1Cc1cccs1 (centres undefined),inactive: 19.7%
5,Cc1ccc(C2C(C#N)=C(N)SC(N)=C2C#N)o1,inconclusive: 48.3%
6,COCCSc1ccccc1C(=O)Nc1cc(C)on1,active: 63.5%
7,O=C(O)/C=C/c1ccc(O)c(O)c1,active: 75.8%
8,CCSc1nnc(NC(=O)c2csc3c2CCCC3)s1,inconclusive: 51.8%
9,Cc1cc(C(F)(F)F)nc(SCC(=O)NC2=NC(=O)C(C)S2)n1 (centres undefined),inconclusive: 49.1%
10,O=c1c2[nH]c3ccccc3c2ncn1CCN1CCCCC1,inactive: 37.3%
11,Oc1ccc(-c2nc(-c3ccc(O)c(O)c3)cs2)cc1,active: 82.6%
12,N#CC1=C(N)SC(N)=C(C#N)C1CCC1CCCCC1,inconclusive: 52.7%
13,Cc1ccc(O)c(C(=O)c2cnc3c(c2)CN(CCC(C)C)C(=O)N3)c1,inconclusive: 46.6%
14,COc1ccc(-n2c(C)cc(C(=O)COc3ccc(-n4cnnn4)cc3)c2C)cc1,inactive: 24%
15,COC(=O)c1oc2ccc(Br)cc2c1NC(=O)c1ccccc1,active: 76.1%
16,CC(C)Cn1c(N)c(C(=O)COC(=O)c2cc(-c3ccco3)nc3ccccc23)c(=O)n(C)c1=O,inconclusive: 49.9%
17,Cc1ccc(-c2nnc(SCC(=O)Nc3ccc(S(=O)(=O)N4CCCCCC4)cc3)o2)cc1,inconclusive: 53.7%
18,Cn1ccnc1P(=S)(c1nccn1C)N1CCOCC1,active: 62.3%
19,Cc1ccc(OCc2nnc(NC(=O)Cc3cccs3)s2)cc1,inconclusive: 50.1%
20,COC(=O)c1ccccc1NC(=O)CN1C(=O)C2CCCN2c2ncc(Cl)cc21 (centres undefined),inconclusive: 51.3%

row,SMILES,inhibition
1,CCOC(=O)c1c(N)ssc1=S,inconclusive: 45.7%
2,Cc1cccc(N2CCN(S(=O)(=O)c3ccc4c(c3)n(C)c(=O)c(=O)n4C)CC2C)c1 (centres undefined),inconclusive: 55%
3,Cc1ccc(-n2c(SCC(=O)Nc3ccc4c(c3)OCO4)nnc2-c2cccs2)cc1,inactive: 29.5%
4,COC(=O)c1c(-c2cccnc2)csc1NC(=O)c1cc(C)on1,inconclusive: 52.1%
5,CC(C)OC(=O)c1c(N)sc2c1CCCC2,inconclusive: 47.1%
6,CCSc1nnc(NC(=O)C2Cc3ccccc3CN2C(=O)c2ccco2)s1 (centres undefined),inconclusive: 51.3%
7,Cc1ccc(-c2nnn(CC(=O)N3CCCCC3)n2)c(-n2cnnn2)c1,inactive: 12.8%
8,CC1CC(C)CN(S(=O)(=O)c2ccc(C(=O)Nc3nnc(-c4cccs4)o3)cc2)C1 (centres undefined),inconclusive: 44.1%
9,CCc1ccc2[nH]c(=O)c(CN(Cc3ccc4c(c3)OCO4)C(=O)c3ccco3)cc2c1,inactive: 19.6%
10,COc1cccc2sc(N3CCN(c4nc5ccccc5s4)CC3)nc12,inconclusive: 48.8%
11,CC(C)(C)c1ccc(O)c(N)c1,inconclusive: 53.4%
12,Cc1ccc(NC2c3ncccc3C(=O)N2c2ccccc2C)cc1C (centres undefined),inactive: 11%
13,Cc1ccc(C)n1-c1cccc(C(=O)O)c1,inconclusive: 43.5%
14,CCOc1ccc(-n2c(=O)c3c4c(sc3n(CC(=O)NCc3ccco3)c2=O)CCC4)cc1,active: 87.3%
15,O=c1/c(=C\c2cccn2-c2ccccc2)sc2nc3ccccc3n12,active: 60.7%
16,c1ccc(CSc2nnc(-c3ccco3)c(-c3ccco3)n2)cc1,inactive: 42.2%
17,CCOc1ccccc1NC(=O)c1nc[nH]c1C(=O)Nc1ccccc1OCC,inconclusive: 46.7%
18,N#Cc1c(NC(=O)CSc2ncnc3sccc23)oc(-c2ccco2)c1-c1ccco1,inactive: 18.9%
19,CN1CCN(C2=C(Cl)C(=O)N(c3cccc(Cl)c3)C2=O)CC1,inactive: 16.5%
20,O=C(Nc1cccc(C(F)(F)F)c1)N1CCC(c2nc(-c3ccc(F)cc3)no2)CC1,inactive: 47.2%

row,SMILES,inhibition
1,CCC1(C)Cc2c(sc3c2c(=O)n(C)c2nnc(SCc4ccc5c(c4)OCO5)n32)CO1 (centres undefined),active: 75.2%
2,CC(=O)c1sc(N2C(=O)c3oc4ccccc4c(=O)c3C2c2ccc(C)o2)nc1C (centres undefined),inconclusive: 51.4%
3,Cc1c(Cc2ccccc2)sc(N)c1C(N)=O,inconclusive: 41.4%
4,C/C=C/Cn1c(SC)nc2c1c(=O)[nH]c(=O)n2C,inconclusive: 48.5%
5,c1ccc(-c2nnc3sc(-c4csc5c4CCCC5)nn23)cc1,inconclusive: 49.8%
6,Nn1cnn(Cc2ccccc2)c1=S,inconclusive: 50.2%
7,O=C(CSc1nnc(-c2ccc(F)cc2)o1)c1ccc2c(c1)OCCO2,inconclusive: 44.3%
8,COC(=O)c1ccc(Cn2cnc3c(sc4nc(N5CCOCC5)c5c(c43)CCCC5)c2=O)o1,inconclusive: 42.5%
9,CCCCN(CC)S(=O)(=O)c1ccc(C(=O)Nc2nnc(-c3cccs3)o2)cc1,inconclusive: 50.7%
10,COc1cccc(-c2nnc3n2N=C(c2cccc(Br)c2)CS3)c1,inconclusive: 52.8%
11,c1ccc(Cc2nnc3sc(-c4ccncc4)nn23)cc1,active: 66.1%
12,Cc1ccc(-c2csc(NC(=O)c3cccc(N4C(=O)CCC4=O)c3)n2)o1,inactive: 24.2%
13,O=C(Oc1ccc(-c2cnc3ccccc3n2)cc1)c1ccco1,inconclusive: 46%
14,CC(C)Sc1nc2sc3c(c2c2nnc(SCC(=O)NCc4ccco4)n12)CCCC3,active: 66.9%
15,Cc1cc(O)c(C(C)C)cc1N=C1CSC(=O)N1,inconclusive: 52.3%
16,Cc1ccc(-c2nnn(CC(=O)Nc3ccc4nn(-c5ccccc5)nc4c3)n2)o1,inconclusive: 52%
17,COc1cc(-c2nn3c(Cc4ccccc4)nnc3s2)cc(OC)c1OC,active: 80.3%
18,O=C1CC(c2ccco2)Cc2nc(Nc3nc(-c4ccccc4)c4ccccc4n3)ncc21 (centres undefined),active: 66.3%
19,COc1ccc(OC)c(S(=O)(=O)Nc2ccc(O)c3ccccc23)c1,inconclusive: 48.4%

# Entries shown so far that contain a halogen (8):
row,SMILES,inhibition
2,Cc1cc(C(=O)CSc2nnc(-c3ccc(OC(F)F)cc3)o2)c(C)n1Cc1cccs1,active: 67.5%
9,Cc1cc(C(F)(F)F)nc(SCC(=O)NC2=NC(=O)C(C)S2)n1 (centres undefined),inconclusive: 49.1%
15,COC(=O)c1oc2ccc(Br)cc2c1NC(=O)c1ccccc1,active: 76.1%
20,COC(=O)c1ccccc1NC(=O)CN1C(=O)C2CCCN2c2ncc(Cl)cc21 (centres undefined),inconclusive: 51.3%
19,CN1CCN(C2=C(Cl)C(=O)N(c3cccc(Cl)c3)C2=O)CC1,inactive: 16.5%
20,O=C(Nc1cccc(C(F)(F)F)c1)N1CCC(c2nc(-c3ccc(F)cc3)no2)CC1,inactive: 47.2%
7,O=C(CSc1nnc(-c2ccc(F)cc2)o1)c1ccc2c(c1)OCCO2,inconclusive: 44.3%
10,COc1cccc(-c2nnc3n2N=C(c2cccc(Br)c2)CS3)c1,inconclusive: 52.8%

# Pulled by compound from the entries so far:
row,SMILES,inhibition
19,COc1ccc(OC)c(S(=O)(=O)Nc2ccc(O)c3ccccc23)c1,inconclusive: 48.4%
4,C/C=C/Cn1c(SC)nc2c1c(=O)[nH]c(=O)n2C,inconclusive: 48.5%
